# Data as given in PubChem BioAssay AID1259424 (University of Nebraska Medical Center, 2018).
# Aim: 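Find knockdowns that reproduce the expression shifts seen after KSR1 loss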 (primary screen)
# Cells: human HCT116 colon cancer cells
# Reagents: siRNA pool against human genes, 50 nM
# Read-out: 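Log2 levels of six mRNAs (branched-DNA multiplex), adjusted by two reference genes and the non-targeting median, then scored against the average KSR1 knockdown pattern as Pearson r and euclidean distance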
# Scale: mean correlation with KSR1 profile and KSR1 correlation: higher = expression change more like KSR1 knockdown; mean distance from KSR1 profile: higher = expression change less like KSR1 knockdown
# The whole screen tested about 14,000 reagents; this is a random part of them. 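Higher correlation or smaller distance means closer resemblance to KSR1 loss; control wells, including KSR1 knockdowns, recur on many plates.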 The record does not give: the time to read-out.
Gene,mean correlation with KSR1 profile,mean distance from KSR1 profile,"KSR1 correlation, replicate 1","KSR1 correlation, replicate 2","KSR1 correlation, replicate 3"
GHSR,0.394,2.95,0.304,0.417,0.582
FANCL,-0.511,2.09,-0.615,-0.503,-0.148
SEMA5B,-0.265,2.9,-0.429,-0.115,-0.152
POMK,0.426,2.98,0.255,0.329,0.429
TSPAN4,-0.404,3.95,-0.166,-0.567,-0.401
ZNF747,-0.0824,1.13,-0.232,-0.304,-0.163
USP32P2,0.329,1.02,0.326,0.316,0.243
WDR45B,-0.702,1.56,-0.748,-0.785,-0.831
FBLIM1,-0.591,3.78,-0.43,-0.766,-0.593
VPS53,-0.236,2.78,0.145,-0.787,-0.164

Limited to “KSR1 correlation, replicate 2”, for 3 of the entries above:
WDR45B: -0.785
FBLIM1: -0.766
VPS53: -0.787

Additional records follow.
Gene,mean correlation with KSR1 profile,mean distance from KSR1 profile,"KSR1 correlation, replicate 1","KSR1 correlation, replicate 2","KSR1 correlation, replicate 3"
AGMAT,-0.161,1.8,0.188,-0.0644,-0.212
GOLGA7,-0.396,2.74,-0.502,-0.312,-0.134
IL22RA2,0.0769,1.28,0.0507,-0.0249,0.25
MARCHF5,0.45,1.43,0.365,0.312,0.57
APBB2,-0.0579,1.67,0.0636,-0.0534,-0.128
PAQR3,0.489,2.33,0.61,0.38,0.319
RO60,-0.449,3.02,-0.291,-0.499,-0.409
CASP7,0.0527,1.4,-0.294,0.433,0.464
PRC1,-0.303,2.56,-0.522,-0.334,-0.281
MRPL1,-0.0769,1.53,0.245,-0.0337,-0.522
